Measurements reported in PubChem BioAssay AID1508588 (Peter MacCallum Cancer Centre, 2020).
Screen: 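Knock-downs boosting vemurafenib effects on melanoma cell growth or lactate release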 (primary screen). Cells: human WM266.4 melanoma cells (BRAF V600 mutant). Reagent: siRNA pool against human genes, 40 nM. Time to read-out: 96 h from transfection to read-out. Treatment: vemurafenib 300 nM (about IC25), added 48 h after transfection, for 48 h; comparison arm got DMSO vehicle only. Measurement: 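Ratios to non-targeting siRNA for cell gain, counted as DAPI nuclei after minus before drug and averaged over two replicates, and for absorbance-read medium lactate per cell; both binned into fold-change classes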. Direction: cell gain with vemurafenib: higher = more cell gain than with non-targeting siRNA; lactate per cell with vemurafenib: higher = more lactate made per cell. Hit rule: 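a knock-down counts as enhancing when its fold-change classes with vehicle and with vemurafenib, taken together, show a stronger drug effect on cell gain or lactate per cell; exact class pairs not stated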. Meaning of the calls: active = enhances vemurafenib effect; inactive = no enhancement seen.
This is an unselected part of about 18,000 reagents tested. In the full data, 790 (4.4%) got an active call. 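Calls rest on a combination of fold-change classes in drug and vehicle arms, not all shown here.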 A number with no mark means an inactive call.

After knock-down of PIKFYVE, the record shows cell gain with vemurafenib 0.52; lactate per cell with vemurafenib 1.26.
After knock-down of JSRP1 the results were cell gain with vemurafenib 0.22; lactate per cell with vemurafenib 1.04.
For ASXL1, the entry reads cell gain with vemurafenib 1.03; lactate per cell with vemurafenib 0.6.
PRSS33 showed cell gain with vemurafenib 0.96; lactate per cell with vemurafenib 1.15.
Against ANKDD1A, the values are cell gain with vemurafenib 0.93; lactate per cell with vemurafenib 0.65.
Depletion of DOP1A came out at: cell gain with vemurafenib 0.44; lactate per cell with vemurafenib 0.68.
CHCHD6 gave cell gain with vemurafenib 1.12; lactate per cell with vemurafenib 0.74.
OR10A3 showed cell gain with vemurafenib 0.2; lactate per cell with vemurafenib 1.28.
TMEM39B showed cell gain with vemurafenib 0.81; lactate per cell with vemurafenib 1.
For DPF3, the values are cell gain with vemurafenib 0.44; lactate per cell with vemurafenib 0.68.
NMRAL1 scored cell gain with vemurafenib 0.34; lactate per cell with vemurafenib 0.93.
Knock-down of MTMR10 resulted in: cell gain with vemurafenib 0.73; lactate per cell with vemurafenib 0.7.
After knock-down of KCNG3 the results were cell gain with vemurafenib 0.97; lactate per cell with vemurafenib 1.06.
For CAST the deposit lists cell gain with vemurafenib 0.54; lactate per cell with vemurafenib 0.57.
Against AQP3 the deposit lists cell gain with vemurafenib 0.27; lactate per cell with vemurafenib 0.92.
Against INPP5A the deposit lists cell gain with vemurafenib 0.62 (active); lactate per cell with vemurafenib 0.46.
After knock-down of ZNF776 the results were cell gain with vemurafenib 0.45; lactate per cell with vemurafenib 1.04.
After knock-down of NPPA, the screen gave cell gain with vemurafenib 0.09; lactate per cell with vemurafenib 1.71.
BRD7 scored cell gain with vemurafenib 0.3; lactate per cell with vemurafenib 0.53.
ZNF714 scored cell gain with vemurafenib 0.78; lactate per cell with vemurafenib 0.8.
For RYR2, the entry reads cell gain with vemurafenib 0.96; lactate per cell with vemurafenib 0.97.
Silencing of RHBDD3 resulted in: cell gain with vemurafenib 0.08; lactate per cell with vemurafenib 0.79.
Against MYL10, the entry reads cell gain with vemurafenib 0.65; lactate per cell with vemurafenib 1.36.
PLPP4 gave cell gain with vemurafenib 0.33; lactate per cell with vemurafenib 1.44.
For CPXM2 the deposit lists cell gain with vemurafenib 0.85; lactate per cell with vemurafenib 0.66.
For WBP1L the deposit lists cell gain with vemurafenib 0.57; lactate per cell with vemurafenib 0.86.
SEC14L3 scored cell gain with vemurafenib 0.79; lactate per cell with vemurafenib 1.34.
ZNF700 showed cell gain with vemurafenib 0.77; lactate per cell with vemurafenib 1.29.
With knock-down of HBZ the results were cell gain with vemurafenib 0.69; lactate per cell with vemurafenib 0.52.
ANKRD13C scored cell gain with vemurafenib 0.62 (active); lactate per cell with vemurafenib 0.3.
Knock-down of GMDS came out at: cell gain with vemurafenib 0.43; lactate per cell with vemurafenib 2.39.
Knock-down of C19orf18 gave: cell gain with vemurafenib 1.09; lactate per cell with vemurafenib 0.59.
Depletion of ACOT6 gave: cell gain with vemurafenib 0.69; lactate per cell with vemurafenib 1.51.
After knock-down of SERBP1, the record shows cell gain with vemurafenib 0.79; lactate per cell with vemurafenib 1.25.
PHLDA1 showed cell gain with vemurafenib 0.26; lactate per cell with vemurafenib 0.96.
With knock-down of GNB5, the screen gave cell gain with vemurafenib 0.65; lactate per cell with vemurafenib 0.94.
Silencing of AGR3 came out at: cell gain with vemurafenib 0.77; lactate per cell with vemurafenib 0.94.
Depletion of HNMT gave: cell gain with vemurafenib 0.88; lactate per cell with vemurafenib 0.23.
ERG28 scored cell gain with vemurafenib 0.28; lactate per cell with vemurafenib 2.52.
Silencing of DHX58 gave: cell gain with vemurafenib 0.46; lactate per cell with vemurafenib 0.9.
With knock-down of PRDM6, the screen gave cell gain with vemurafenib 0.88; lactate per cell with vemurafenib 1.21.
For ADGRE4P the deposit lists cell gain with vemurafenib 0.77; lactate per cell with vemurafenib 1.15.
Depletion of CAPNS2 resulted in: cell gain with vemurafenib 0.69; lactate per cell with vemurafenib 0.42.
ARPP19 scored cell gain with vemurafenib 0.71; lactate per cell with vemurafenib 1.15.
After knock-down of SNX11 the results were cell gain with vemurafenib 0.6; lactate per cell with vemurafenib 1.25.
FERMT3 showed cell gain with vemurafenib 0.48; lactate per cell with vemurafenib 1.43.
Against PDZK1, the values are cell gain with vemurafenib 1.16; lactate per cell with vemurafenib 0.36.
Knock-down of CBLB gave: cell gain with vemurafenib 0.99; lactate per cell with vemurafenib 0.82.
Knock-down of PXMP2 came out at: cell gain with vemurafenib 0.46; lactate per cell with vemurafenib 1.12.
Knock-down of SH3RF1 resulted in: cell gain with vemurafenib 0.75; lactate per cell with vemurafenib 1.27.
For OSBPL2 the deposit lists cell gain with vemurafenib 0.55; lactate per cell with vemurafenib 0.44.
RAB9B gave cell gain with vemurafenib 0.47 (active); lactate per cell with vemurafenib 0.66.

5 entries already listed, arranged by “lactate per cell with vemurafenib”, lowest first:
ANKRD13C — cell gain with vemurafenib: 0.62 (active); lactate per cell with vemurafenib: 0.3
C19orf18 — cell gain with vemurafenib: 1.09; lactate per cell with vemurafenib: 0.59
SERBP1 — cell gain with vemurafenib: 0.79; lactate per cell with vemurafenib: 1.25
ACOT6 — cell gain with vemurafenib: 0.69; lactate per cell with vemurafenib: 1.51
GMDS — cell gain with vemurafenib: 0.43; lactate per cell with vemurafenib: 2.39
